From PubChem BioAssay AID2685 (National Center for Advancing Translational Sciences (NCATS), 2010)
Some of the results follow. Shown are side measurements of this screen, not its main read-out; they come without a call. Compounds called inactive in the main read-out are mostly missing here. The note in brackets gives the kind of curve behind each potency; many fits are weak.

Assay: qHTS Assay for Lipid Storage Modulators in Drosophila S3 Cells;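 for cell number change: cells counted by Cell Tracker Red CMTPX staining in the red channel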
Conditions: BODIPY lipid droplet fluorescence, 18-24 h; for cell number change: measured here: cell count max response, cells fed with added oleic acid
In short: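 Drosophila S3 cells got compounds at several concentrations plus oleic acid (400 uM solution). Laser-scanning cytometry with 488 nm excitation read lipid droplets at 500-530 nm and cells at 575-640 nm. Percent activity was relative to 20 uM Triacsin C.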

[1] = measured here: lipid fluorescence (Fed channel) AC50, cells fed with added oleic acid
[2] = measured here: cell number channel AC50, cells fed with added oleic acid

Row | Structure (SMILES) | cell number change [%] | AC50 [1] | AC50 [2]
1 | COc1ccc(C(=O)Nc2nc3ccccc3s2)cc1 | -0.518 | – | –
2 | CCOC(=O)CSc1nc2sc3c(c2c(=O)[nH]1)CC(C)(CC)OC3 (configuration not stated) | 13.8 | 4.61 µM [falling, partial curve] | –
3 | CCOC(=O)CC1C(=O)NCCN1C(=O)c1cc2c(=O)n3cccc(C)c3nc2s1 (configuration not stated) | 16.2 | – | –
4 | CSc1ccccc1NC(=O)CCn1c(=O)oc2ccccc21 | -22.9 | 6.51 µM [falling, single point] | –
5 | COc1ccc(NC(=O)CSc2sc3c(O)cc(=O)[nH]c3c2C#N)c(OC)c1 | 23.5 | – | –
6 | CN1C(=O)N(C)C2CC1N(C)C(=O)N2C | -5.21 | 4.61 µM [falling, single point] | –
7 | COc1ccc(-c2cc(C(F)F)nc(-n3nc(C)cc3C)n2)cc1 | -22.1 | 16.4 µM [falling, single point] | –
8 | CCn1cc(C(=O)NC2CC3CCC2C3)c(=O)c2ccc(C)nc21 (configuration not stated) | 21 | 4.61 µM [rising, partial curve] | –
9 | COc1ccc(-c2ccnc(SCC(=O)N3CCN(c4ccccc4)CC3)n2)cc1 | 30.7 | 8.2 µM [rising, partial curve, poor fit] | 16.4 µM [rising, single point]
10 | CS(=O)(=O)c1ccc2nc(NC(=O)c3ccc(NS(=O)(=O)c4ccc(F)c(F)c4)cc3)sc2c1 | -3.18 | 13 µM [falling, partial curve] | –
11 | Cn1nnnc1SCCOc1ccc(C#N)cc1 | -5.05 | – | –
12 | Cc1cccc(OCc2nnc(SCC(=O)NCCc3ccccc3)o2)c1 | 2.91 | 0.291 µM [rising, partial curve, poor fit] | –
13 | COc1cc(/C=C/C(=O)Nc2cc(C(F)(F)F)ccc2Cl)cc(OC)c1OC | -55.3 | 11.6 µM [falling, single point] | 2.06 µM [falling, full curve]
14 | Cc1noc(C)c1CSCC(=O)NC1=NCCS1 | 4.12 | 29.1 µM [rising, single point] | –
15 | COc1ccc(C(=O)O)cc1S(N)(=O)=O | -27.1 | 9.2 µM [falling, partial curve, poor fit] | –
16 | COc1ccc(S(=O)(=O)N2CCCCC2)cc1NC(=O)CN1CCN(C(C)=O)CC1 | 3.85 | – | –

Row | Structure (SMILES) | cell number change [%] | AC50 [1] | AC50 [2]
17 | Cc1cc(NC(=O)c2cccc([N+](=O)[O-])c2)n(-c2ccccc2)n1 | 15 | 29.1 µM [rising, single point] | –
18 | O=C1C(=O)N(CCCn2ccnc2)C(c2ccc([N+](=O)[O-])cc2)/C1=C(\O)c1ccc2c(c1)OCCO2 (configuration not stated) | 6.37 | 2.31 µM [rising, single point] | –
19 | OCC[C@@H]1C[C@H](O)[C@@H](O)[C@@]2(Cc3ccccc3O2)O1 | 21.3 | – | –
20 | Cc1ccc(/C=C/C(=O)Nc2nnc(SCc3ccc(C#N)cc3)s2)o1 | -43.7 | 29.1 µM [falling, single point] | 29.1 µM [falling, single point]
21 | CCCCCOC(=O)C1=C(C)NC(=O)NC1c1ccc(OC)cc1 (configuration not stated) | -26.8 | 29.1 µM [falling, single point] | –
22 | CCCn1nc(NC(=O)c2ccco2)c2cc3ccc(C)cc3nc21 | -31.6 | 0.58 µM [rising, full curve] | –
23 | O=C(Nc1cccc2cccnc12)c1cccc(N2C(=O)CCC2=O)c1 | -2.86 | 0.517 µM [rising, full curve, poor fit] | –
24 | O=C(CSc1nnc(NC(=O)c2ccco2)s1)Nc1ccccc1Cl | – | 6.51 µM [falling, partial curve] | –
25 | CC(=O)c1c(C)[nH]c(C(=O)OCC(=O)c2c(N)n(C)c(=O)n(C)c2=O)c1C | – | 0.103 µM [rising, full curve, poor fit] | –
26 | COc1ccc(Br)cc1/C=N/NC(=O)c1nc(-c2ccccc2)n2c1CCCCC2 | – | 29.1 µM [rising, partial curve] | –
27 | CC(C(=O)NCCN1CCOCC1)(c1ccccc1)c1ccccc1 | -42.5 | 20.6 µM [falling, single point] | 25.9 µM [falling, single point]
28 | CCOc1ccc(-c2nnc(SCC(=O)NC(C)(C)C)nc2-c2ccc(OCC)c(OC)c2)cc1OC | 10.6 | – | –
29 | O=C(NCc1cccs1)C1CCCN(C(=O)Nc2ccccc2)C1 (configuration not stated) | 2.94 | – | –
30 | CCOC(=O)NC(=O)c1cn(Nc2ccccc2)c(=O)[nH]c1=O | -10.4 | – | 0.651 µM [falling, full curve]
31 | NC(=O)c1ccc(NC(=O)COC(=O)CC(NC(=O)c2ccccc2Cl)c2ccccc2)cc1 (configuration not stated) | 8.91 | 3.66 µM [rising, full curve] | –
32 | COCCCn1c(=N)c(C(=O)NCc2ccc3c(c2)OCO3)cc2c(=O)n3ccccc3nc21 | -10.2 | 0.58 µM [rising, full curve] | –

3 structures from above, arranged by length of the SMILES, falling.
Row | Structure (SMILES) | cell number change [%] | AC50 [1] | AC50 [2]
28 | CCOc1ccc(-c2nnc(SCC(=O)NC(C)(C)C)nc2-c2ccc(OCC)c(OC)c2)cc1OC | 10.6 | – | –
23 | O=C(Nc1cccc2cccnc12)c1cccc(N2C(=O)CCC2=O)c1 | -2.86 | 0.517 µM [rising, full curve, poor fit] | –
30 | CCOC(=O)NC(=O)c1cn(Nc2ccccc2)c(=O)[nH]c1=O | -10.4 | – | 0.651 µM [falling, full curve]
